In PubChem BioAssay AID1347426 (Functional Genomics Laboratory (NCATS/FGL), 2020):
About 1,400 (4.5%) of roughly 31,000 sequences were called active.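 Rule for the calls: active = median seed-adjusted z-score above 1 or below -1; inactive = the rest.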 Some of the results follow.

test: Novel Modifiers of Survival Motor Neuron (SMN) Protein: Gene Identification via Genome-wide siRNA Screen; settings: HEK293T SMN2-luciferase reporter, siRNA knockdown, 72 h; actives lie on both sides;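 note: luminescence tracks full-length SMN protein made from the SMN2 reporter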
Procedure, shortened: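 HEK293T cells stably carrying an SMN2 promoter/splicing cassette–luciferase reporter were reverse-transfected with 1 pmol siRNA per well (druggable-genome library, 3 siRNAs per gene) and grown 72 h at 37 °C. Luminescence, normalized to negative-control siRNA and log10-transformed, was scored as MAD.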

Sequence | median seed-adjusted z-score
CGUCAACUCGGAAACGCAATT against ZNF385D | inactive: -0.338
CAGCUAAGAUUUAUCAGAATT against NR3C2 | inactive: -0.0918
GCUACCUUUUAGUUUACUATT against SNX4 | inactive: -0.144
GUCGCUUCCAGAUUGCUCATT against TK1 | inactive: -0.0562
AGGUGGAUGUGAACACUGATT against SDF4 | inactive: -0.422
GGCCUGACCUCAUUGACUATT against ACTN2 | inactive: 0.165
CAUUCCAUCGUGUACCUCATT against FKBP4 | inactive: 0.283
GGAGUGCUACCACAGUAAUTT against LPAL2 | inactive: 0.7
GGUUCUUCCCGUUGUCUUUTT against TOMM22 | inactive: 0.486
GCCUUGGGUUUGACAAACATT against MTHFS | inactive: 0.166
AAAACCCAGUCGUCACCAATT against RNF113B | inactive: -0.228
GCAUGAGGAAGGACGGUUUTT against IL16 | inactive: -0.471
CCAUGGAUGUUGUGAAACUTT against CSF3R | inactive: -0.491
GAGAGAUCUUAGGACUAUUTT against ABCA5 | inactive: -0.376
CGGGAGAAAAUGACUCAAATT against ACTA2 | inactive: 0.739
GUGAGGAUAUGGAACCGCATT against CRYM | inactive: -0.373
CCACUAUAAAAGUCUUUAATT against PLXNC1 | inactive: -0.0792
UCGGAAAUGUUAAACUUUATT against BSPRY | inactive: -0.399
AGGUAAAGCGGUUGAAUGATT against RABEP2 | inactive: -0.0546
CAUACGUACUCCUCCAAAATT against MAP2 | inactive: 0.238
AGAAUAAACUGGCAGCUCATT against GP9 | inactive: -0.88
CGCACCAUCUACUCCAGUUTT against DLX2 | inactive: -0.527
CAACCAAUGUGCGUCUGAATT against CHRNA1 | inactive: -0.32

3 entries drawn at random from the list so far:
Sequence | median seed-adjusted z-score
CAGCUAAGAUUUAUCAGAATT against NR3C2 | inactive: -0.0918
CGCACCAUCUACUCCAGUUTT against DLX2 | inactive: -0.527
AGGUGGAUGUGAACACUGATT against SDF4 | inactive: -0.422

Carrying on.

Sequence | median seed-adjusted z-score
GUAUCGGUCUUUCAACUAUTT against NMBR | inactive: 0.32
UCAUCCCACUUUGCCCUGATT against OXER1 | inactive: -0.471
GGGACCAUCCUGUUCUUCATT against KCNK12 | active: 1.04
GGUUACUGAUGAACGAGUATT against FAP | inactive: -0.258
CAUUCUAUGUUAAGUCAAATT against ZNF37A | inactive: -0.0585
AGAUGUUAGGGACACCAGATT against RILP | inactive: 0.503
CGAGGAAUGUACUAGCAAUTT against XIRP2 | inactive: -0.404
CAGUGGAAUUGUUGCCUUUTT against SLC39A7 | inactive: 0.0554
UGAUGGGCAAGUACACGUATT against KCNIP2 | inactive: 0.415
CCACCUGUAAGAACAGAAATT against SFRS5 | inactive: 0.346
CUACGGCUUUGGAGAUAUATT against RECQL | inactive: -0.905
GCAGUUCCCUUAGAGCUAGTT against MAP4 | active: 1.67
CUCAGAUACUAUUACAACATT against ETV3 | inactive: -0.039
GAAGCUAAGUUCAUAGGUUTT against GRM3 | inactive: -0.401
GGCUCUAUGUCGUAGAAAATT against MPZL1 | inactive: 0.376
CCUCAGCAAUCAGCAGACATT against FES | inactive: 0.402
GCACAUCGCAGAUCAAAGUTT against PIK3R5 | inactive: 0.799
GAGUGGACAUCAUAGAGAATT against GSTM3 | inactive: -0.66
GCCCAGGUCUGUACAGAUATT against ROBO4 | inactive: -0.431
GAACUGUCACUGUGAGAUATT against EBI3 | inactive: -0.206
GCAUAGAGGAGAUCUGUGATT against PROC | inactive: -0.228
GCAUCUACUGACUUGAUUUTT against MLF2 | inactive: -0.312
GGUGAAGAAUACCAGCAAATT against ACYP2 | inactive: 0.286

Sequence | median seed-adjusted z-score
GAAUGGAUUCUGACCUUAUTT against MTO1 | inactive: -0.0252
GAAUGCCUUUCAUGAGAAUTT against CYP4A22 | inactive: -0.479
GUACUGUAGAGAAAGCGUATT against ZNF606 | inactive: 0.118
GCACUUGGAUCGCAUGAAATT against AHCYL1 | inactive: 0
CUAUUACAAUUCCUCGGAATT against TRIM11 | inactive: -0.251
CCAAUACAGGGAUCCUAUATT against PCDHGA4 | inactive: 0.0698
CCUGCCCAAGAGUACCUUUTT against EEF1G | inactive: -0.206
CAUGCUCUAUUGCUCAGUATT against ALK | inactive: 0.0139
CAUCUUCACGGUCAACAAATT against TRPM4 | inactive: 0.0519
GGAUAGCAAAACAACUAGATT against RB1 | inactive: 0.49
GCUAUUUACUCAGUCCGUUTT against HELZ | inactive: 0.0778
CUCCCUCGGUUAUAAAGAUTT against SLC4A5 | active: 1.3
GGCUAGAAGUCAGCUAUCATT against PPP1R15B | inactive: -0.407
GAACUGAUGAAGGUAUUAATT against PARVA | inactive: 0.0852
CAAUCGCUAUCAACCGUUATT against GPR50 | inactive: -0.0348
GUCAUCAACGGAAACAUAATT against EIF3G | inactive: -0.198
GAAAAAGCGUGAAGUCAUATT against GABRA5 | inactive: 0
GGGAUUCAAAUGAAAGUGATT against TBC1D22A | inactive: -0.00192
CCAUAACGGUGGAUGAGUATT against MPPED2 | inactive: 0.418
CCGUCAUGCUGAUACUCUUTT against SOAT2 | inactive: 0.612
GGUAUAAUCUUCGACUCAATT against GRIK2 | inactive: 0.00242
CUACAGAAGUACAAUCAUUTT against UGP2 | inactive: 0.0766
GCAGGCGUCUAAAUACUUUTT against DLC1 | inactive: -0.0296
